Measured values: patent publication US20230203127A1

Each binder was assayed against HLA-A*02:01 (human) (assay: UV peptide-exchange ELISA, exchange yield grade).

binding, binds:
ALAGIVTNV [… (SEQ ID NO: 246)], LLWGHPRVALA [… (SEQ ID NO: 25)], NLLIDDKGTIKL [… (SEQ ID NO: 247)], VLMQDSRLYL [… (SEQ ID NO: 248)], YLYQILQGI [… (SEQ ID NO: 249)], LMQDSRLYL [… (SEQ ID NO: 250)], LLWGNLPEI [… (SEQ ID NO: 251)], SLMEKNQSL [… (SEQ ID NO: 252)], KLLAVIHEL [… (SEQ ID NO: 253)], ALGDKFLLRV [… (SEQ ID NO: 254)], FLMKNSDLYGA [… (SEQ ID NO: 255)], FLNDIFERI [… (SEQ ID NO: 256)], VLDGKVAVV [… (SEQ ID NO: 26)], KLIDHQGLYL [… (SEQ ID NO: 257)], QLVQRVASV [… (SEQ ID NO: 258)], GPGIFPPPPPQP [… (SEQ ID NO: 259)], ALNESLVEC [… (SEQ ID NO: 260)], GLAALAVHL [… (SEQ ID NO: 261)], LLLEAVWHL [… (SEQ ID NO: 262)], SIIEYLPTL [… (SEQ ID NO: 263)], TLHDQVHLL [… (SEQ ID NO: 264)], FLLDKPQDLSI [… (SEQ ID NO: 265)], FLLDKPQDL [… (SEQ ID NO: 266)], GLLGKVTSV [… (SEQ ID NO: 27)], YLLDMPLWYL [… (SEQ ID NO: 267)], SLDKDIVAL [… (SEQ ID NO: 268)], GLLDCPIFL [… (SEQ ID NO: 269)], TLLTFFHEL [… (SEQ ID NO: 270)], VLIEYNFSI [… (SEQ ID NO: 271)], FVMEGEPPKL [… (SEQ ID NO: 272)], SLNKQIETV [… (SEQ ID NO: 273)], TLYNPERTITV [… (SEQ ID NO: 274)], AVPPPPSSV [… (SEQ ID NO: 275)], RMPTVLQCV [… (SEQ ID NO: 276)], IKVTDPQLLEL [… (SEQ ID NO: 28)], KLQEELNKV [… (SEQ ID NO: 277)], VLEDKVLSV [… (SEQ ID NO: 278)], VLMDEGAVLTL [… (SEQ ID NO: 279)], HLWGHALFL [… (SEQ ID NO: 280)], LLLESDPKVYSL [… (SEQ ID NO: 281)], SLYALHVKA [… (SEQ ID NO: 282)], ALSELLQQV [… (SEQ ID NO: 283)], KLMDPGSLPPL [… (SEQ ID NO: 284)], MLLDTVQKV [… (SEQ ID NO: 285)], FLTEMVHFI [… (SEQ ID NO: 286)], GLLETTGLLAT [… (SEQ ID NO: 31)], TLDRNSLYV [… (SEQ ID NO: 33)], VLFGELPAL [… (SEQ ID NO: 4)], TLNTLDINL [… (SEQ ID NO: 34)], VIIKGLEEI [… (SEQ ID NO: 35)], TVLQELINV [… (SEQ ID NO: 36)], QIVELIEKI [… (SEQ ID NO: 37)], VLQQESNFL [… (SEQ ID NO: 38)], YLEDGFAYV [… (SEQ ID NO: 39)], KIWEELSVLEV [… (SEQ ID NO: 40)], IVTEIISEI [… (SEQ ID NO: 41)], KQMSISTGL [… (SEQ ID NO: 42)], AVFNLVHVV [… (SEQ ID NO: 44)], GLVDIMVHL [… (SEQ ID NO: 5)], FLPVSVVYV [… (SEQ ID NO: 45)], GLNGFNVLL [… (SEQ ID NO: 47)], KISDFGLATV [… (SEQ ID NO: 48)], KLIGNIHGNEV [… (SEQ ID NO: 49)], ILLSVLHQL [… (SEQ ID NO: 50)], LDSEALLTL [… (SEQ ID NO: 51)], TIGIPFPNV [… (SEQ ID NO: 52)], AQHLSTLLL [… (SEQ ID NO: 53)], YLVPGLVAA [… (SEQ ID NO: 54)], HLFDKIIKI [… (SEQ ID NO: 55)], FLNAIETAL [… (SEQ ID NO: 6)], TLYPGRFDYV [… (SEQ ID NO: 57)], HLLGEGAFAQV [… (SEQ ID NO: 58)], ALADGIKSFLL [… (SEQ ID NO: 59)], YLFSQGLQGL [… (SEQ ID NO: 60)], ALYPKEITL [… (SEQ ID NO: 61)], SLVENIHVL [… (SEQ ID NO: 62)]

No constants are given. Whether binding was seen depends on the method and setting. A result given as binding can be weak or reduced; the word gives no strength.
